Data from PMC6797079.
Results are given in words; binding and its absence hold for the method and conditions named. In cells and extracts the contact can be indirect. Some binding calls cover weakened binding; strength is not graded here. Tags and fused reporters may be left off the sequences shown.

Assays:
[1] = substrate: NIS Y242A, MYC- or HA-tagged (human) (UniProt Q92911); experiment: proximity ligation; Duolink In Situ (Detection Reagents Red) with anti-MYC and anti-HA antibodies on fixed, permeabilised SW1736 and HeLa cells 48 hours after transfection; signal if the two are fewer than 40 nm apart
[2] = substrate: NIS T243A, MYC- or HA-tagged (human) (UniProt Q92911); experiment: as above
[3] = substrate: NIS Q471A, MYC- or HA-tagged (human) (UniProt Q92911); experiment: as above
[4] = substrate: NIS A525F, MYC- or HA-tagged (human) (UniProt Q92911); experiment: as above
[5] = substrate: NIS D237A, cerulean- or citrine-tagged (human) (UniProt Q92911); experiment: FRET or BRET; SW1736 and HeLa cells cotransfected with NIS variants conjugated to cerulean or citrine, spinning disk confocal imaging 48 hours post-transfection; corrected FRET (arbitrary units) after subtraction of CFP and YFP cross talk
[6] = substrate: NIS Y242A, cerulean- or citrine-tagged (human) (UniProt Q92911); experiment: as above
[7] = substrate: NIS T243A, cerulean- or citrine-tagged (human) (UniProt Q92911); experiment: as above

B1: NIS Y242A, MYC- or HA-tagged (protein, UniProt Q92911 1-643)
chain: MEAVETGERPTFGAWDYGVFALMLLVSTGIGLWVGLARGGQRSAEDFFTGGRRLAALPVGLSLSASFMSAVQVLGVPSEAYRYGLKFLWMCLGQLLNSVLTALLFMPVFYRLGLTSTYEYLEMRFSRAVRLCGTLQYIVATMLYTGIVIYAPALILNQVTGLDIWASLLSTGIICTFYTAVGGMKAVVWTDVFQVVVMLSGFWVVLARGVMLVGGPRQVLTLAQNHSRINLMDFNPDPRSRATFWTFVVGGTLVWLSMYGVNQAQVQRYVACRTEKQAKLALLINQVGLFLIVSSAACCGIVMFVFYTDCDPLLLGRISAPDQYMPLLVLDIFEDLPGVPGLFLACAYSGTLSTASTSINAMAAVTVEDLIKPRLRSLAPRKLVIISKGLSLIYGSACLTVAALSSLLGGGVLQGSFTVMGVISGPLLGAFILGMFLPACNTPGVLAGLGAGLALSLWVALGATLYPPSEQTMRVLPSSAARCVALSVNASGLLDPALLPANDSSRAPSSGMDASRPALADSFYAISYLYYGALGTLTTVLCGALISCLTGPTKRSTLAPGLLWWDLARQTASVAPKEEVAILDDNLVKGPEELPTGNKKPPGFLPTNEDRLFFLGQKELEGAGSWTPCVGHDGGRDQQETNL
- binding [1]: binds

B2: NIS T243A, MYC- or HA-tagged (protein, UniProt Q92911 1-643)
chain: MEAVETGERPTFGAWDYGVFALMLLVSTGIGLWVGLARGGQRSAEDFFTGGRRLAALPVGLSLSASFMSAVQVLGVPSEAYRYGLKFLWMCLGQLLNSVLTALLFMPVFYRLGLTSTYEYLEMRFSRAVRLCGTLQYIVATMLYTGIVIYAPALILNQVTGLDIWASLLSTGIICTFYTAVGGMKAVVWTDVFQVVVMLSGFWVVLARGVMLVGGPRQVLTLAQNHSRINLMDFNPDPRSRYAFWTFVVGGTLVWLSMYGVNQAQVQRYVACRTEKQAKLALLINQVGLFLIVSSAACCGIVMFVFYTDCDPLLLGRISAPDQYMPLLVLDIFEDLPGVPGLFLACAYSGTLSTASTSINAMAAVTVEDLIKPRLRSLAPRKLVIISKGLSLIYGSACLTVAALSSLLGGGVLQGSFTVMGVISGPLLGAFILGMFLPACNTPGVLAGLGAGLALSLWVALGATLYPPSEQTMRVLPSSAARCVALSVNASGLLDPALLPANDSSRAPSSGMDASRPALADSFYAISYLYYGALGTLTTVLCGALISCLTGPTKRSTLAPGLLWWDLARQTASVAPKEEVAILDDNLVKGPEELPTGNKKPPGFLPTNEDRLFFLGQKELEGAGSWTPCVGHDGGRDQQETNL
- binding [2]: binds

B3: NIS Q471A, MYC- or HA-tagged (protein, UniProt Q92911 1-643)
chain: MEAVETGERPTFGAWDYGVFALMLLVSTGIGLWVGLARGGQRSAEDFFTGGRRLAALPVGLSLSASFMSAVQVLGVPSEAYRYGLKFLWMCLGQLLNSVLTALLFMPVFYRLGLTSTYEYLEMRFSRAVRLCGTLQYIVATMLYTGIVIYAPALILNQVTGLDIWASLLSTGIICTFYTAVGGMKAVVWTDVFQVVVMLSGFWVVLARGVMLVGGPRQVLTLAQNHSRINLMDFNPDPRSRYTFWTFVVGGTLVWLSMYGVNQAQVQRYVACRTEKQAKLALLINQVGLFLIVSSAACCGIVMFVFYTDCDPLLLGRISAPDQYMPLLVLDIFEDLPGVPGLFLACAYSGTLSTASTSINAMAAVTVEDLIKPRLRSLAPRKLVIISKGLSLIYGSACLTVAALSSLLGGGVLQGSFTVMGVISGPLLGAFILGMFLPACNTPGVLAGLGAGLALSLWVALGATLYPPSEATMRVLPSSAARCVALSVNASGLLDPALLPANDSSRAPSSGMDASRPALADSFYAISYLYYGALGTLTTVLCGALISCLTGPTKRSTLAPGLLWWDLARQTASVAPKEEVAILDDNLVKGPEELPTGNKKPPGFLPTNEDRLFFLGQKELEGAGSWTPCVGHDGGRDQQETNL
- binding [3]: binds

B4: NIS A525F, MYC- or HA-tagged (protein, UniProt Q92911 1-643)
chain: MEAVETGERPTFGAWDYGVFALMLLVSTGIGLWVGLARGGQRSAEDFFTGGRRLAALPVGLSLSASFMSAVQVLGVPSEAYRYGLKFLWMCLGQLLNSVLTALLFMPVFYRLGLTSTYEYLEMRFSRAVRLCGTLQYIVATMLYTGIVIYAPALILNQVTGLDIWASLLSTGIICTFYTAVGGMKAVVWTDVFQVVVMLSGFWVVLARGVMLVGGPRQVLTLAQNHSRINLMDFNPDPRSRYTFWTFVVGGTLVWLSMYGVNQAQVQRYVACRTEKQAKLALLINQVGLFLIVSSAACCGIVMFVFYTDCDPLLLGRISAPDQYMPLLVLDIFEDLPGVPGLFLACAYSGTLSTASTSINAMAAVTVEDLIKPRLRSLAPRKLVIISKGLSLIYGSACLTVAALSSLLGGGVLQGSFTVMGVISGPLLGAFILGMFLPACNTPGVLAGLGAGLALSLWVALGATLYPPSEQTMRVLPSSAARCVALSVNASGLLDPALLPANDSSRAPSSGMDASRPALADSFYFISYLYYGALGTLTTVLCGALISCLTGPTKRSTLAPGLLWWDLARQTASVAPKEEVAILDDNLVKGPEELPTGNKKPPGFLPTNEDRLFFLGQKELEGAGSWTPCVGHDGGRDQQETNL
- binding [4]: binds

B5: NIS D237A, cerulean- or citrine-tagged (protein, UniProt Q92911 1-643)
chain: MEAVETGERPTFGAWDYGVFALMLLVSTGIGLWVGLARGGQRSAEDFFTGGRRLAALPVGLSLSASFMSAVQVLGVPSEAYRYGLKFLWMCLGQLLNSVLTALLFMPVFYRLGLTSTYEYLEMRFSRAVRLCGTLQYIVATMLYTGIVIYAPALILNQVTGLDIWASLLSTGIICTFYTAVGGMKAVVWTDVFQVVVMLSGFWVVLARGVMLVGGPRQVLTLAQNHSRINLMDFNPAPRSRYTFWTFVVGGTLVWLSMYGVNQAQVQRYVACRTEKQAKLALLINQVGLFLIVSSAACCGIVMFVFYTDCDPLLLGRISAPDQYMPLLVLDIFEDLPGVPGLFLACAYSGTLSTASTSINAMAAVTVEDLIKPRLRSLAPRKLVIISKGLSLIYGSACLTVAALSSLLGGGVLQGSFTVMGVISGPLLGAFILGMFLPACNTPGVLAGLGAGLALSLWVALGATLYPPSEQTMRVLPSSAARCVALSVNASGLLDPALLPANDSSRAPSSGMDASRPALADSFYAISYLYYGALGTLTTVLCGALISCLTGPTKRSTLAPGLLWWDLARQTASVAPKEEVAILDDNLVKGPEELPTGNKKPPGFLPTNEDRLFFLGQKELEGAGSWTPCVGHDGGRDQQETNL
- binding [5]: binds

B6: NIS Y242A, cerulean- or citrine-tagged (protein, UniProt Q92911 1-643)
chain: MEAVETGERPTFGAWDYGVFALMLLVSTGIGLWVGLARGGQRSAEDFFTGGRRLAALPVGLSLSASFMSAVQVLGVPSEAYRYGLKFLWMCLGQLLNSVLTALLFMPVFYRLGLTSTYEYLEMRFSRAVRLCGTLQYIVATMLYTGIVIYAPALILNQVTGLDIWASLLSTGIICTFYTAVGGMKAVVWTDVFQVVVMLSGFWVVLARGVMLVGGPRQVLTLAQNHSRINLMDFNPDPRSRATFWTFVVGGTLVWLSMYGVNQAQVQRYVACRTEKQAKLALLINQVGLFLIVSSAACCGIVMFVFYTDCDPLLLGRISAPDQYMPLLVLDIFEDLPGVPGLFLACAYSGTLSTASTSINAMAAVTVEDLIKPRLRSLAPRKLVIISKGLSLIYGSACLTVAALSSLLGGGVLQGSFTVMGVISGPLLGAFILGMFLPACNTPGVLAGLGAGLALSLWVALGATLYPPSEQTMRVLPSSAARCVALSVNASGLLDPALLPANDSSRAPSSGMDASRPALADSFYAISYLYYGALGTLTTVLCGALISCLTGPTKRSTLAPGLLWWDLARQTASVAPKEEVAILDDNLVKGPEELPTGNKKPPGFLPTNEDRLFFLGQKELEGAGSWTPCVGHDGGRDQQETNL
- binding [6]: binds

B7: NIS T243A, cerulean- or citrine-tagged (protein, UniProt Q92911 1-643)
chain: MEAVETGERPTFGAWDYGVFALMLLVSTGIGLWVGLARGGQRSAEDFFTGGRRLAALPVGLSLSASFMSAVQVLGVPSEAYRYGLKFLWMCLGQLLNSVLTALLFMPVFYRLGLTSTYEYLEMRFSRAVRLCGTLQYIVATMLYTGIVIYAPALILNQVTGLDIWASLLSTGIICTFYTAVGGMKAVVWTDVFQVVVMLSGFWVVLARGVMLVGGPRQVLTLAQNHSRINLMDFNPDPRSRYAFWTFVVGGTLVWLSMYGVNQAQVQRYVACRTEKQAKLALLINQVGLFLIVSSAACCGIVMFVFYTDCDPLLLGRISAPDQYMPLLVLDIFEDLPGVPGLFLACAYSGTLSTASTSINAMAAVTVEDLIKPRLRSLAPRKLVIISKGLSLIYGSACLTVAALSSLLGGGVLQGSFTVMGVISGPLLGAFILGMFLPACNTPGVLAGLGAGLALSLWVALGATLYPPSEQTMRVLPSSAARCVALSVNASGLLDPALLPANDSSRAPSSGMDASRPALADSFYAISYLYYGALGTLTTVLCGALISCLTGPTKRSTLAPGLLWWDLARQTASVAPKEEVAILDDNLVKGPEELPTGNKKPPGFLPTNEDRLFFLGQKELEGAGSWTPCVGHDGGRDQQETNL
- binding [7]: binds
